The source of these data is patent publication US20140121273A1, “METHOD FOR TREATMENT OF MAGNESIUM AND POTASSIUM DEFICIENCIES” (priority 2005, published 2014).

A short description of the data set: Intracellular elemental concentrations in sublingual buccal smears (EXAtest, energy-dispersive X-ray analysis), same study. In kind it is in vivo, human. Conditions: buccal cells, magnesium group n = 10, mean ± SD. On the procedure: A randomized, double blind, placebo-controlled study was performed at Hartford Hospital. People taking dofetilide or sotalol therapy for at least 5 half-lives were eligible for inclusion. […] After enrollment, people who discontinued their sotalol or dofetilide or altered their dosage of these drugs were excluded as well. Thirty-four participants were enrolled in the study. Three were subsequently excluded because the antiarrhythmics they were using were discontinued or the dose of the antiarrhythmics changed during the study. Given the known baseline differences in QTc intervals among men and women, each gender was randomized separately using stratified allocation. Patients completing the study (n=30) were well matched for baseline characteristics, which are reflected in Table 1. Intracellular concentrations of essential elements were available for 19 subjects. Overall 63.2% of patients (regardless of experimental group) had baseline intracellular magnesium concentrations below the normal reference range of 33.9-41.9 mEq/IU with an average level of 32.6±2.2 mEq/IU. All of the other baseline intracellular elements evaluated (phosphorus, chloride, calcium, potassium, and sodium) were within the reference range although the phosphorus was at the top of the range (average=16.7±2.8 mEq/IU with reference range of 14.2-17.0 mEq/IU).
Participants received three tablets of magnesium L-lactate (Mag-Tab SR®; Niche Pharmaceuticals; Roanoke, Tex.) or matching placebo twice daily (504 mg of elemental magnesium daily) for 48 hours (i.e. t=0, 12 h, 24 h, 36 h, and 48 h). A 12-lead electrocardiogram (ECG) was recorded at 25 mm/sec at rest prior to initiation of treatment (i.e. baseline) and at 3 and 51 hours after the first dose of magnesium (i.e. t=3 h and t=51 h) for each participant. A single blinded investigator read all ECGs using a precision ruler of 0.5 mm scale (Schlaedler-Quinzel, Inc. Parsippany, N.J.).
Sublingual buccal smears were obtained from a subgroup of participants prior to initiation of study therapy and following the third dose of magnesium using EXAtest™ kits (Intracellular Diagnostics, Inc.; Foster City, Calif.). Samples were analyzed by energy-dispersive X-ray Analysis for intracellular concentrations of magnesium, phosphorus, chloride, calcium, potassium, and sodium. The use of buccal cell smears for intracellular magnesium was performed because it is noninvasive, reproducible, and correlates well (r=0.68, p<0.002) with atrial cell intracellular magnesium.
Continuous data was expressed by a mean±SD. A p value less than 0.05 was considered statistically significant. The primary analysis was the intergroup comparisons of the change in QTc interval from baseline at 3 hours and 51 hours using Bazett's formula. Evaluations of the QRS, QT, and RR intervals were compared between groups at each time period as well. Mann-Whitney tests were used for all statistical analyses of continuous ECG data. Intracellular element intragroup comparisons were performed with a paired t-test. Chi^2 or Fischer's Exact tests were used for categorical comparisons. Statistical analysis was performed using SPSS version 5.

On to `C[C@H](O)C(=O)[O-].C[C@H](O)C(=O)[O-].[Mg+2]` [magnesium L-lactate], for which, for the setting “before study therapy”, the “Intracellular calcium concentration, Baseline” value stood at 4.2 ± 0.4 mEq/IU; the “Intracellular chloride concentration, Baseline” value is 4.5 ± 1.4 mEq/IU; the “Intracellular potassium concentration, Baseline” value was found to be 119.1 ± 22.2 mEq/IU; the “Intracellular sodium concentration, Baseline” value was found to be 4.4 ± 0.8 mEq/IU. Further, the “Intracellular phosphorus concentration, Baseline” value (before study therapy, reference range 14.2-17.0) is listed as 15.9 ± 2.2 mEq/IU. Also, for the setting “following the third dose”, the “Intracellular calcium concentration, Post-Dosing” value is 4.3 ± 0.6 mEq/IU; the “Intracellular chloride concentration, Post-Dosing” value came out at 3.9 ± 0.6 mEq/IU; the “Intracellular phosphorus concentration, Post-Dosing” value was found to be 16.5 ± 1.7 mEq/IU; the “Intracellular potassium concentration, Post-Dosing” value is listed as 96.7 ± 20.4 mEq/IU. The “Intracellular sodium concentration, Post-Dosing” value (following the third dose) stood at 4.1 ± 0.4 mEq/IU.
